PubChem BioAssay AID1259424, University of Nebraska Medical Center | 2018
Here is an unselected part of about 14,000 reagents. 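Higher correlation or smaller distance means closer resemblance to KSR1 loss; control wells, including KSR1 knockdowns, recur on many plates.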 A reagent listed more than once was tested more than once; the source does not tell the runs apart. Not all columns of the deposit are shown. The record does not give: the time to read-out.

- Screen: 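Seek colon cancer survival genes behaving like KSR1, using a six-gene signature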 (primary screen)
- Cells: human HCT116 colon cancer cells
- Reagent: siRNA pool against human genes, 50 nM
- Read-out: 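Six signature mRNAs by branched-DNA multiplex assay, scaled to two housekeeping genes and non-targeting median, log2; matched to mean KSR1 knockdown profile by Pearson correlation and euclidean distance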
- Reading the numbers: mean correlation with KSR1 profile: higher = expression change more like KSR1 knockdown

gene	mean correlation with KSR1 profile
FRMPD1 (GeneID 22844)	-0.0273
ZYG11B (GeneID 79699)	-0.0291
POLR2L (GeneID 5441)	-0.815
PARG (GeneID 8505)	-0.198
ALDH1B1 (GeneID 219)	-0.505
HRK (GeneID 8739)	0.486
NDUFA8 (GeneID 4702)	-0.134
SHISA5 (GeneID 51246)	0.423
NOMO1 (GeneID 23420)	-0.349
TBK1 (GeneID 29110)	0.0486
COMMD2 (GeneID 51122)	0.213
GHRH (GeneID 2691)	0.29
TMOD3 (GeneID 29766)	0.164
CEACAM1 (GeneID 634)	0.279
BEGAIN (GeneID 57596)	-0.387
GNAS (GeneID 2778)	0.662
ZNF507 (GeneID 22847)	-0.577
PIK3CG (GeneID 5294)	0.735
PIK3CG (GeneID 5294)	0.794
EDDM3B (GeneID 64184)	-0.402
MAOB (GeneID 4129)	-0.324
HTRA1 (GeneID 5654)	0.742
HPRT1 (GeneID 3251)	-0.0611
APPL2 (GeneID 55198)	0.0212
KMT5C (GeneID 84787)	-0.719
DBH (GeneID 1621)	-0.772
HPGD (GeneID 3248)	0.0434
PRCP (GeneID 5547)	0.236
ARHGAP26 (GeneID 23092)	-0.684
B3GNT5 (GeneID 84002)	0.332
SLC7A3 (GeneID 84889)	0.63
YPEL1 (GeneID 29799)	0.741
GPR132 (GeneID 29933)	0.318
ZC3H7B (GeneID 23264)	0.27

Entries listed so far whose gene name begins with B or b (2):
gene	mean correlation with KSR1 profile
BEGAIN (GeneID 57596)	-0.387
B3GNT5 (GeneID 84002)	0.332
